This passage reports binding results from article PMC2679146.

Chains of the proteins cited; added tags and fusions are not shown.
UniProt Q09028: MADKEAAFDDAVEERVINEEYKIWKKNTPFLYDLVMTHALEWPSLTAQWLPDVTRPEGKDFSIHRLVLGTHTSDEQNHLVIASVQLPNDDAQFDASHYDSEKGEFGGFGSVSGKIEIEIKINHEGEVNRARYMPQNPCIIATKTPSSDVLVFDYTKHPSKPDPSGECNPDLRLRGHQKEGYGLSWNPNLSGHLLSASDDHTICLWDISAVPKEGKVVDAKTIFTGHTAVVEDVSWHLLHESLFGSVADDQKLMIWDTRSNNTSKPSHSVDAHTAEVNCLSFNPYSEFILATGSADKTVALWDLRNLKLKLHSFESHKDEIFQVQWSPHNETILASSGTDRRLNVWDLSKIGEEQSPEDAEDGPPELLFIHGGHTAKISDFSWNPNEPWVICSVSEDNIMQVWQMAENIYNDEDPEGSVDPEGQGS
UniProt Q14839: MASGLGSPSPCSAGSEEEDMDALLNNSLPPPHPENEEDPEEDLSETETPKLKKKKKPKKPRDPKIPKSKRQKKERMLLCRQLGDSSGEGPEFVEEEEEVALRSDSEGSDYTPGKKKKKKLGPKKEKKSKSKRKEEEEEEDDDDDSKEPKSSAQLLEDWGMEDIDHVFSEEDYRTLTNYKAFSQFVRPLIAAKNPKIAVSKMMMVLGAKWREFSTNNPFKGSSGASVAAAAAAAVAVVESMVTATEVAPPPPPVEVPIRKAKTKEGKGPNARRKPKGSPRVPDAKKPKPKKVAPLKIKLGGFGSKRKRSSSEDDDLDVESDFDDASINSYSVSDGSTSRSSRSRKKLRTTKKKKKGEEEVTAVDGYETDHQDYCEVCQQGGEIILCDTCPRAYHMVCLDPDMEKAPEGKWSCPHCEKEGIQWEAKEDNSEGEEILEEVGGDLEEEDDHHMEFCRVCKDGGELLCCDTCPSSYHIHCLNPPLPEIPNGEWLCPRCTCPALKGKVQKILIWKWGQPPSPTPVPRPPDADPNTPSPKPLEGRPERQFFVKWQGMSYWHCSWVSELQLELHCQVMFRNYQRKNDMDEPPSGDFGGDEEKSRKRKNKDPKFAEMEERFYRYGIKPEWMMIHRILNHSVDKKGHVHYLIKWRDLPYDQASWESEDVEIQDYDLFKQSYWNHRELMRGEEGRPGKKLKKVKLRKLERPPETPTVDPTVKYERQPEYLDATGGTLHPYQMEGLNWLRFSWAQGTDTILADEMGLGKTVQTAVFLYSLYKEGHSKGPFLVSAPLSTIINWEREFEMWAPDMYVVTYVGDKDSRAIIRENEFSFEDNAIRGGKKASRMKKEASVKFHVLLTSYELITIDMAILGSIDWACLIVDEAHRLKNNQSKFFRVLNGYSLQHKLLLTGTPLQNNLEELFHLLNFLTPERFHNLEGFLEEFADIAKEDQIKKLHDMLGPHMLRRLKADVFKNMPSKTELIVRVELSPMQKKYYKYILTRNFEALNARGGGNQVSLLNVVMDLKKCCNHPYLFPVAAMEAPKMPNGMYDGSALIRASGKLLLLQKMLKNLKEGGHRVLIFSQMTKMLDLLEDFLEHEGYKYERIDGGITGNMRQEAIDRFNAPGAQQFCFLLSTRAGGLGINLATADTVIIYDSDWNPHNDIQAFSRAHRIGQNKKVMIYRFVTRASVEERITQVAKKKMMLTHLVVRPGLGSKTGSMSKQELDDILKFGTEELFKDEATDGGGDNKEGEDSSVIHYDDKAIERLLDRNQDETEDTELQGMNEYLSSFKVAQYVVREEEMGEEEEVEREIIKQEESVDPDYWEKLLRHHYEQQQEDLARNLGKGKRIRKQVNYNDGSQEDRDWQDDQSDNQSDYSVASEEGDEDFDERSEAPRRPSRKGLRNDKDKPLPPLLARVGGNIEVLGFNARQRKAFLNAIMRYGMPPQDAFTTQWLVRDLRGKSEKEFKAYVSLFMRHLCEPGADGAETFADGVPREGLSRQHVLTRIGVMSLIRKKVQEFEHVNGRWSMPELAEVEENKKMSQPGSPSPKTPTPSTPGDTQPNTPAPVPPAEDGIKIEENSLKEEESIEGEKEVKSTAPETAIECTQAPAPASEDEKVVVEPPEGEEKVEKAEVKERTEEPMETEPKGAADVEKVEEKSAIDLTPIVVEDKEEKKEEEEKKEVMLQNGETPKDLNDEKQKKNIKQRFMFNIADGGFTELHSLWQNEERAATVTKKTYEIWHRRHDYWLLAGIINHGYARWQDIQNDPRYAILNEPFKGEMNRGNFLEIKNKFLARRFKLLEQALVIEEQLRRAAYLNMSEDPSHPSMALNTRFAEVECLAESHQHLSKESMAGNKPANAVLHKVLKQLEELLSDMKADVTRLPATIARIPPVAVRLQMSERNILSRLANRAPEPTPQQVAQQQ
UniProt Q13547: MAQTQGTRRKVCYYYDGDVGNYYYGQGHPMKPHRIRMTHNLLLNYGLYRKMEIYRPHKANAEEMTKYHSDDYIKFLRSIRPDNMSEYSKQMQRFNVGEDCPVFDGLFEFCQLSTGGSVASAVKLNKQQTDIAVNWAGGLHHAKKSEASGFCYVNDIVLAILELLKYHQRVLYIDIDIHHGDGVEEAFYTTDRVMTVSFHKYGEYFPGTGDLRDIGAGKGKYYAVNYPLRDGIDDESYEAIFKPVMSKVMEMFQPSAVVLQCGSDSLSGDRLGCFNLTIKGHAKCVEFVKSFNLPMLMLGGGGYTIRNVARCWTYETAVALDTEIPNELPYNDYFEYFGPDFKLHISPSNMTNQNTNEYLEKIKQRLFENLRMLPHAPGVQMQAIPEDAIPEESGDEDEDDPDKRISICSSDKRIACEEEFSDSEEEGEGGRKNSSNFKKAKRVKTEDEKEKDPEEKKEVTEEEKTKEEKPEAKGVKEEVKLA
UniProt Q92769: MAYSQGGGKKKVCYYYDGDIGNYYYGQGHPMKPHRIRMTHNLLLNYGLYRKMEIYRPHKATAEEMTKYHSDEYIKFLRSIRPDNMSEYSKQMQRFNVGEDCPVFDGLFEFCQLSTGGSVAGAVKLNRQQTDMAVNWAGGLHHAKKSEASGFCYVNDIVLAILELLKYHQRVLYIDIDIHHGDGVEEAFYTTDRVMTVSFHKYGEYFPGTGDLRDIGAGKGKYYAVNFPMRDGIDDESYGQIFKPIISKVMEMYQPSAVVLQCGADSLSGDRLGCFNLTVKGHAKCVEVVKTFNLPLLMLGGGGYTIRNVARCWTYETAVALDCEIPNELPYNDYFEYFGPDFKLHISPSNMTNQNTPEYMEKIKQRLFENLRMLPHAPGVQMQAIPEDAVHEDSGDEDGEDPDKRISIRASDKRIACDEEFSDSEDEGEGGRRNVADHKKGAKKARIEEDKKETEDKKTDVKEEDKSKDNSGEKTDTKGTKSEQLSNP

Assay [1] concerns the target T1, SALL4B (pcDNA3-SALL4B) (UniProt Q9UJQ4).
T1 sequence: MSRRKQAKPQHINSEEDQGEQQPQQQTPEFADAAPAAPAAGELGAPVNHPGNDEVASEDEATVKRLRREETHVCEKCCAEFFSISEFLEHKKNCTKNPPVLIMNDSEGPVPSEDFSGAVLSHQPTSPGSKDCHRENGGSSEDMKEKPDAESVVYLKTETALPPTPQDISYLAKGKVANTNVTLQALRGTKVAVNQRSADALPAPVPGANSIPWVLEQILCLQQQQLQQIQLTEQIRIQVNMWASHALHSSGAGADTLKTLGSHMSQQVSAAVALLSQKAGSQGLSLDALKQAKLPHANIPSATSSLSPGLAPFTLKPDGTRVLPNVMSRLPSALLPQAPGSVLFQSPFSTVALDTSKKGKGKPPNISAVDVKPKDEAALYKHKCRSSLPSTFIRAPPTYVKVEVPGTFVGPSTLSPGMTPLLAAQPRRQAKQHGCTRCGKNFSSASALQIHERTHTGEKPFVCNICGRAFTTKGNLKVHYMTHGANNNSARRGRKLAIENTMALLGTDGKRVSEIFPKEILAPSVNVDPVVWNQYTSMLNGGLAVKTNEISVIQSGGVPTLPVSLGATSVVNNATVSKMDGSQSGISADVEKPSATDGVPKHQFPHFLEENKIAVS
Put plainly: co-IP; data not shown; Western blotting of SALL4B-bound proteins. (In general: In western blotting, separated proteins are transferred to a membrane and probed.)

Another assay concerns the target SALL4A (pcDNA3-SALL4A) (UniProt Q9UJQ4). Put plainly: co-IP; 1 mg nuclear protein of SALL4A- or SALL4B-expressing 293T cells or of D3 mouse ES cells, anti-SALL4 antibody or rabbit IgG at 4°C overnight, protein G beads, washes with 0.1% NP-40, Western blots.
The target of assay [2] is T1, SALL4B (pcDNA3-SALL4B). Described as above.

No constants are given. Whether binding was seen depends on the method and setting. Binding seen in cells or lysates may run through a third protein. Some entries that bind do so weakly or less than the wild type.

As for RbAP48 (from UniProt Q09028 1-425), the binding result in the assay with SALL4B (pcDNA3-SALL4B) [1] is given as “binds”. As for Mi-2β (from UniProt Q14839 1-1912), the binding entry in the assay with SALL4A (pcDNA3-SALL4A) was “binds”. The same measure, in the same setting: under “HDAC1 (from UniProt Q13547 1-482) (enzyme)” stands “binds”. As for “HDAC2 (from UniProt Q92769 1-488) (enzyme)”, the binding result with SALL4A (pcDNA3-SALL4A) and with SALL4B (pcDNA3-SALL4B) [2] was “binds” in each case.
